Part of at least one peptide drawing is inferred or uncertain, most often the ends. Ends that are not written are not given here.
Tested on: P. gingivalis 2561 binding to sHAP beads
Type: cell-based, Porphyromonas gingivalis
Details: FIG. 6a, 6b

Substance | Inhibitory effect of smaller peptides on binding of P. gingivalis to sHAP beads (in words)
HKYDIKLT [peptide 293-300] | comparable to that of the parental peptide 293-306
IHPTILCVYGK [226-236] | very strong inhibitory effect
NGADLA [240-245] | weak inhibition
TITGPGT [300-306] | low binding inhibition effect

Reference: US5536497A, “Fimbrial polypeptides useful in the prevention of periodontitis” (priority 1992, dated 1996)
